# Experimental data: the supplement of paper PMC8728848
# The list shows a part of the results.
# B1: GS7807I-bvu-563-22-563 (Bacteroides vulgatus) (protein)
# chain: IFSSCTDDFEKLNTSNIQVDPADLPFAAQCTEPMTYCYPPQQNMFQFWTNLTIDLYGGYFMTPNGNFTNGDMGENRGHSGGMYENYYLHIFNNTRRIIAQCDASGERGLSGVMRIVQAYGTLMTTDAYGPIPYSSILSGENEVYFEFDSQKDLYKAMLEDLSTAITDISAMGADEIAKLKSFDCWCNGDKDLWVKIANTMKLRMALRLSKRETEAGNAGMNLKAIATEAAQNTLATVNKDILIDKSLENEMWLMFNWGDCGFNANLVTIMSGTKDPRQPLYMTLNTGDIKNEAGTTTVAANSQYLGIRFASGLPAKPNSWGNFSGWIQGNNGSSYSMPLPIMKAAEAYFLLAEAKLRWDIGSESVKNLYENGIRVSMTNELAYRGAYAGIKEYPEGAVDAYINGTSTQIDYTDPIKAELSTPAVNKLSVKWDESASNEEKLERIITQKWLALFPLSTEGWAEQRRTGYPRFFPAFVNESNGAVNTEEGVRRVIYSSQAYDANAKGVEGGIKLLDEENSSKFGISGDKGGTHLWWDNADKGNF
# Key:
# Experiment in all cases: glycan array binding signal (z-score within array); higher = stronger binding
# Details in all cases: glycan notation: IUPAC condensed, linker removed
# [1] = molecular target: Neu5Ac(a2-3)Gal(b1-3)[Fuc(a1-4)]GlcNAc
# In short: (§1)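 Columns mapping to the same glycan were averaged after glycan names were converted to IUPAC-condensed notation. The data come from 3228 arrays in the Consortium for Functional Glycomics database, limited to those with an available protein sequence. Binding is reported as a within-array Z-score averaged across arrays of one protein sequence and across linkers.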
# [2] = molecular target: Neu5Ac(a2-3)Gal(b1-3)[Fuc(a1-4)]GlcNAc(b1-3)Gal(b1-3)[Fuc(a1-4)]GlcNAc
# In short: as §1
# [3] = molecular target: Neu5Ac(a2-3)Gal(b1-3)[Fuc(a1-4)]GlcNAc(b1-3)Gal(b1-4)[Fuc(a1-3)]GlcNAc
# In short: as §1
# [4] = molecular target: Neu5Ac(a2-3)Gal(b1-3)[GlcNAc(b1-6)]GalNAc
# In short: as §1
# [5] = molecular target: Neu5Ac(a2-3)Gal(b1-3)[Neu5Ac(a2-6)]GalNAc
# In short: as §1
# [6] = molecular target: Neu5Ac(a2-3)Gal(b1-3)[Neu5Ac(a2-6)]GlcNAc(b1-3)[Fuc(a1-3)[Gal(b1-4)]GlcNAc(b1-6)]Gal(b1-4)Glc
# In short: as §1
# [7] = molecular target: Neu5Ac(a2-3)Gal(b1-3)]Neu5Ac(a2-3)Gal(b1-4)]GlcNAc
# In short: as §1
# Neu5Ac(a2-3)Gal(b1-4)Glc = molecular target: Neu5Ac(a2-3)Gal(b1-4)Glc
# In short: as §1
# [8] = molecular target: Neu5Ac(a2-3)Gal(b1-4)GlcNAc
# In short: as §1
# [9] = molecular target: Neu5Ac(a2-3)Gal(b1-4)GlcNAc(b1-2)Man
# In short: as §1
# [10] = molecular target: Neu5Ac(a2-3)Gal(b1-4)GlcNAc(b1-2)Man(a1-3)[GlcNAc(b1-4)][Neu5Ac(a2-3)Gal(b1-4)GlcNAc(b1-2)Man(a1-6)]Man(b1-4)GlcNAc(b1-4)GlcNAc
# In short: as §1
# [11] = molecular target: Neu5Ac(a2-3)Gal(b1-4)GlcNAc(b1-2)Man(a1-3)[Neu5Ac(a2-3)Gal(b1-4)GlcNAc(b1-2)Man(a1-6)]Man(b1-4)GlcNAc(b1-4)GlcNAc
# In short: as §1
# [12] = molecular target: Neu5Ac(a2-3)Gal(b1-4)GlcNAc(b1-2)Man(a1-3)[Neu5Ac(a2-3)Gal(b1-4)GlcNAc(b1-2)Man(a1-6)]Man(b1-4)GlcNAc(b1-4)[Fuc(a1-6)]GlcNAc
# In short: as §1
# [13] = molecular target: Neu5Ac(a2-3)Gal(b1-4)GlcNAc(b1-2)Man(a1-3)[Neu5Ac(a2-6)Gal(b1-4)GlcNAc(b1-2)Man(a1-6)]Man(b1-4)GlcNAc(b1-4)GlcNAc
# In short: as §1
# [14] = molecular target: Neu5Ac(a2-3)Gal(b1-4)GlcNAc(b1-2)[Neu5Ac(a2-3)Gal(b1-4)GlcNAc(b1-4)]Man(a1-3)[GlcNAc(b1-4)][Neu5Ac(a2-3)Gal(b1-4)GlcNAc(b1-2)[Neu5Ac(a2-3)Gal(b1-4)GlcNAc(b1-6)]Man(a1-6)]Man(b1-4)GlcNAc(b1-4)GlcNAc
# In short: as §1
# [15] = molecular target: Neu5Ac(a2-3)Gal(b1-4)GlcNAc(b1-2)[Neu5Ac(a2-3)Gal(b1-4)GlcNAc(b1-4)]Man(a1-3)[GlcNAc(b1-4)][Neu5Ac(a2-3)Gal(b1-4)GlcNAc(b1-4)Man(a1-6)]Man(b1-4)GlcNAc(b1-4)GlcNAc
# In short: as §1
# [16] = molecular target: Neu5Ac(a2-3)Gal(b1-4)GlcNAc(b1-2)[Neu5Ac(a2-3)Gal(b1-4)GlcNAc(b1-6)]Man(a1-6)[Neu5Ac(a2-3)Gal(b1-4)GlcNAc(b1-2)Man(a1-3)]Man(b1-4)GlcNAc(b1-4)GlcNAc
# In short: as §1
# [17] = molecular target: Neu5Ac(a2-3)Gal(b1-4)GlcNAc(b1-2)[Neu5Ac(a2-3)Gal(b1-4)GlcNAc(b1-6)]Man(a1-6)[Neu5Ac(a2-3)Gal(b1-4)GlcNAc(b1-2)Man(a1-3)][GlcNAc(b1-4)]Man(b1-4)GlcNAc(b1-4)GlcNAc
# In short: as §1
# [18] = molecular target: Neu5Ac(a2-3)Gal(b1-4)GlcNAc(b1-3)Gal
# In short: as §1
# [19] = molecular target: Neu5Ac(a2-3)Gal(b1-4)GlcNAc(b1-3)Gal(b1-3)GlcNAc
# In short: as §1
# [20] = molecular target: Neu5Ac(a2-3)Gal(b1-4)GlcNAc(b1-3)Gal(b1-4)GlcNAc
# In short: as §1
# [21] = molecular target: Neu5Ac(a2-3)Gal(b1-4)GlcNAc(b1-3)Gal(b1-4)GlcNAc(b1-2)Man(a1-3)[Neu5Ac(a2-3)Gal(b1-4)GlcNAc(b1-3)Gal(b1-4)GlcNAc(b1-2)Man(a1-6)]Man(b1-4)GlcNAc(b1-4)GlcNAc
# In short: as §1
# [22] = molecular target: Neu5Ac(a2-3)Gal(b1-4)GlcNAc(b1-3)Gal(b1-4)GlcNAc(b1-3)Gal(b1-4)GlcNAc
# In short: as §1
# [23] = molecular target: Neu5Ac(a2-3)Gal(b1-4)GlcNAc(b1-3)Gal(b1-4)GlcNAc(b1-3)Gal(b1-4)GlcNAc(b1-2)Man(a1-3)[Neu5Ac(a2-3)Gal(b1-4)GlcNAc(b1-3)Gal(b1-4)GlcNAc(b1-3)Gal(b1-4)GlcNAc(b1-2)Man(a1-6)]GalNAc
# In short: as §1
# [24] = molecular target: Neu5Ac(a2-3)Gal(b1-4)GlcNAc(b1-3)Gal(b1-4)GlcNAc(b1-3)GalNAc
# In short: as §1
# [25] = molecular target: Neu5Ac(a2-3)Gal(b1-4)GlcNAc(b1-3)Gal(b1-4)GlcNAc(b1-3)[Neu5Ac(a2-3)Gal(b1-4)GlcNAc(b1-3)Gal(b1-4)GlcNAc(b1-6)]GalNAc
# In short: as §1
# [26] = molecular target: Neu5Ac(a2-3)Gal(b1-4)GlcNAc(b1-3)Gal(b1-4)GlcNAc(b1-6)[Gal(b1-3)]GalNAc
# In short: as §1
# [27] = molecular target: Neu5Ac(a2-3)Gal(b1-4)GlcNAc(b1-3)Gal(b1-4)[Fuc(a1-3)]GlcNAc
# In short: as §1
# [28] = molecular target: Neu5Ac(a2-3)Gal(b1-4)GlcNAc(b1-3)GalNAc
# In short: as §1
# [29] = molecular target: Neu5Ac(a2-3)Gal(b1-4)GlcNAc(b1-3)[Neu5Ac(a2-3)Gal(b1-4)GlcNAc(b1-6)]GalNAc
# In short: as §1
binder,measurement,setting,value
B1,glycan array binding signal (z-score),[1],0.417
same,glycan array binding signal (z-score),[2],0.599
same,glycan array binding signal (z-score),[3],-1.64
same,glycan array binding signal (z-score),[4],0.671
same,glycan array binding signal (z-score),[5],-0.879
same,glycan array binding signal (z-score),[6],-1.42
same,glycan array binding signal (z-score),[7],-0.616
same,glycan array binding signal (z-score),Neu5Ac(a2-3)Gal(b1-4)Glc,0.689
same,glycan array binding signal (z-score),[8],0.191
same,glycan array binding signal (z-score),[9],2.84
same,glycan array binding signal (z-score),[10],0.465
same,glycan array binding signal (z-score),[11],1.34
same,glycan array binding signal (z-score),[12],0.738
same,glycan array binding signal (z-score),[13],-0.834
same,glycan array binding signal (z-score),[14],0.043
same,glycan array binding signal (z-score),[15],0.21
same,glycan array binding signal (z-score),[16],0.794
same,glycan array binding signal (z-score),[17],-1.12
same,glycan array binding signal (z-score),[18],0.883
same,glycan array binding signal (z-score),[19],-0.109
same,glycan array binding signal (z-score),[20],0.307
same,glycan array binding signal (z-score),[21],0.172
same,glycan array binding signal (z-score),[22],1.28
same,glycan array binding signal (z-score),[23],-0.119
same,glycan array binding signal (z-score),[24],-0.919
same,glycan array binding signal (z-score),[25],1.48
same,glycan array binding signal (z-score),[26],0.201
same,glycan array binding signal (z-score),[27],-0.778
same,glycan array binding signal (z-score),[28],-0.808
same,glycan array binding signal (z-score),[29],-0.146

# Reformatted tab-delimited: part of the list above.
binder	measurement	setting	value
B1	glycan array binding signal (z-score)	[1]	0.417
same	glycan array binding signal (z-score)	[9]	2.84
same	glycan array binding signal (z-score)	[11]	1.34
same	glycan array binding signal (z-score)	[14]	0.043
same	glycan array binding signal (z-score)	[18]	0.883
same	glycan array binding signal (z-score)	[19]	-0.109
same	glycan array binding signal (z-score)	[25]	1.48
same	glycan array binding signal (z-score)	[26]	0.201
same	glycan array binding signal (z-score)	[27]	-0.778
